Assay results as given in publication doi:10.1101/2024.03.27.586763.
These are yes or no findings as the source states them, for the method shown. Binding seen in cells or lysates may run through a third protein. Some binding calls cover weakened binding; strength is not graded here. Sequences can lack the tags named with a protein.

Chains of the proteins cited; added tags and fusions are not shown.
UniProt Q13490: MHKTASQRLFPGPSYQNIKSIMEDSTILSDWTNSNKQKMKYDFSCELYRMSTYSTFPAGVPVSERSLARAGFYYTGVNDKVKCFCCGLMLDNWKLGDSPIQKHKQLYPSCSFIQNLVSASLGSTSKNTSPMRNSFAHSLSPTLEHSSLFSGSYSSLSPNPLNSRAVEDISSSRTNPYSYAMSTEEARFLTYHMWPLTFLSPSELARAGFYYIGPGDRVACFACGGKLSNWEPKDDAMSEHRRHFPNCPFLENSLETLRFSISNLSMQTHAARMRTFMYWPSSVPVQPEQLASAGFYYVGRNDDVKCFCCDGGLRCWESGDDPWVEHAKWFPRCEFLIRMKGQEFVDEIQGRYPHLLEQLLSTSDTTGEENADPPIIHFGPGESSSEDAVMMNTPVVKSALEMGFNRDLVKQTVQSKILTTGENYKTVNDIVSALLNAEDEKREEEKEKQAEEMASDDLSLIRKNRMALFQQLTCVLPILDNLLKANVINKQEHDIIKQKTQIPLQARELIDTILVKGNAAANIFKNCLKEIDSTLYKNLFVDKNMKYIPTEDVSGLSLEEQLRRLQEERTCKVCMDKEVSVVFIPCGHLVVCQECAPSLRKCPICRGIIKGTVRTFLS

How the values were obtained:
Flag-TRAF2 = target: T1, Flag-TRAF2 (UniProt Q12933); test: co-IP
T1 sequence: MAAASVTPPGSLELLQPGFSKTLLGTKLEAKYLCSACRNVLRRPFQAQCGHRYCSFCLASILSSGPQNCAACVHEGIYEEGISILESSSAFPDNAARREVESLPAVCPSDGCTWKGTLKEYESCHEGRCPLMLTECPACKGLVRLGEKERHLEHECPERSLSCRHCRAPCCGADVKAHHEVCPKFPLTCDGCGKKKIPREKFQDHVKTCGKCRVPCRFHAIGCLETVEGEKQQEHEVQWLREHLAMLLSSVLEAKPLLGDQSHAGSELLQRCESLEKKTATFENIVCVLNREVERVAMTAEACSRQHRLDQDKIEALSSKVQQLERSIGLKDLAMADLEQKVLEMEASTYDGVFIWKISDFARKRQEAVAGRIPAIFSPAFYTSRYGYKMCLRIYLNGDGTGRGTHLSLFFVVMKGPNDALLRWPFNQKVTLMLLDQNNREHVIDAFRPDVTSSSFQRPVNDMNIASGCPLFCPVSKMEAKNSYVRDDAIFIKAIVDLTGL

HA cIAP1 (pEBB-HA cIAP1) = HA cIAP1 (pEBB-HA cIAP1) (UniProt Q13490); test: co-IP

binding (Flag-TRAF2): binds
binding (HA cIAP1 (pEBB-HA cIAP1)): binds
B1: ZFAND6-Flag-Myc (protein, UniProt Q6FIF0 1-208)
chain: MAQETNHSQVPMLCSTGCGFYGNPRTNGMCSVCYKEHLQRQNSSNGRISPPATSVSSLSESLPVQCTDGSVPEAQSALDSTSSSMQPSPVSNQSLLSESVASSQLDSTSVDKAVPETEDVQASVSDTAQQPSEEQSKSLEKPKQKKNRCFMCRKKVGLTGFECRCGNVYCGVHRYSDVHNCSYNYKADAAEKIRKENPVVVGEKIQKI
